Measurements from paper PMC11681874.

Biological target: T1, RXRα (UniProt P28700)
T1 sequence: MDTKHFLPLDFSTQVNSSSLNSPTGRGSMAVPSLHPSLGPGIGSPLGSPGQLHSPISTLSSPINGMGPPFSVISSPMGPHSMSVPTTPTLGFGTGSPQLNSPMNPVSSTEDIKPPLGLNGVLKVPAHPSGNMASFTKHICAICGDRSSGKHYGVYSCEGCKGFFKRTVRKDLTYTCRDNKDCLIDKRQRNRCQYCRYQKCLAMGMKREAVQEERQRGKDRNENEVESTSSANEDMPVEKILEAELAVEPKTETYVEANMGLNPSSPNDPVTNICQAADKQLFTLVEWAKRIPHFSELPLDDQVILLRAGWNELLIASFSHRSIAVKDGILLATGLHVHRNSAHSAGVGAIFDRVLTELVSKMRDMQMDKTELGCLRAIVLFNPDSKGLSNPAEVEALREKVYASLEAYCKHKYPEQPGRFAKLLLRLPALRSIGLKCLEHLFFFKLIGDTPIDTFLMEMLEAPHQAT
Experiment: co-IP; immunoprecipitation with anti-RXRα antibody of exogenously expressed proteins as indicated, in differentiated 3T3-L1 cells; no methods section for the co-IP

binding: binds
Substance: Zinc finger protein 407

No constants are given. Whether binding was seen depends on the method and setting. Binding seen in cells or lysates may run through a third protein. Binding can be weak; no strength is given.
